No constants are given. Whether binding was seen depends on the method and setting. A result given as binding can be weak or reduced; the word gives no strength. Where a sequence is shown, tags or fusion partners need not be part of it.
Key:
human Glypican-3 (human) = human Glypican-3 (human) (UniProt P51654); test: cell surface binding, AP fusion on transfected HEK293T cells
Frizzled5 = test: cell surface binding, V5-tagged Wnt5a on transfected HEK293T cells

Amino acid sequences for entries named in this document (tags omitted). A change or cut given only in a name is not applied to a line headed by its entry.
UniProt P51654: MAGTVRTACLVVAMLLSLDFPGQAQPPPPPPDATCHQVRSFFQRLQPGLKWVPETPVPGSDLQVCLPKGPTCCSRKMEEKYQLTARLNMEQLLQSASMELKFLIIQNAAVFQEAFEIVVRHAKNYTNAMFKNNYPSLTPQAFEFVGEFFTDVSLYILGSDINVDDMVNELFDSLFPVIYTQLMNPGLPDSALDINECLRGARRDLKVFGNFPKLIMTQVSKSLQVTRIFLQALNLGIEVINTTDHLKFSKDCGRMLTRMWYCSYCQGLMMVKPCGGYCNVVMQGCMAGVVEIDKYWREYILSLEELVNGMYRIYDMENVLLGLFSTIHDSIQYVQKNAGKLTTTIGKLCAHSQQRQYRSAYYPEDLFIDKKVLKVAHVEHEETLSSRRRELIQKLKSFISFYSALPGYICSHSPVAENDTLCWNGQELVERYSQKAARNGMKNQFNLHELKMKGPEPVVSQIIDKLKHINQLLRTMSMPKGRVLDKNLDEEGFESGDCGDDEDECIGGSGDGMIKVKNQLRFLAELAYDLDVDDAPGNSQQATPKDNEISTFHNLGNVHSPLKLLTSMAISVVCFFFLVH

Binder | binding (human Glypican-3 (human)) | binding (Frizzled5)
hRspo3TSP-AP (signal peptide fused to the TSP domain aa146-209 of human Rspondin-3, followed by AP tag) (ligand, not shown: large carriers) VHCEVSEWNPWSPCTKKGKTCGFKRGTETRVREIIQHPSAKGNLCPPTNETRKCTVQRKKCQKG | binds | 
Wnt5aV5 (V5-tagged Wnt5a) (ligand, mouse, UniProt P22725 62-380, looked up, not shown: small tags and cut ends) IIGAQPLCSQLAGLSQGQKKLCHLYQDHMQYIGEGAKTGIKECQYQFRHRRWNCSTVDNTSVFGRVMQIGSRETAFTYAVSAAGVVNAMSRACREGELSTCGCSRAARPKDLPRDWLWGGCGDNIDYGYRFAKEFVDARERERIHAKGSYESARILMNLHNNEAGRRTVYNLADVACKCHGVSGSCSLKTCWLQLADFRKVGDALKEKYDSAAAMRLNSRGKLVQVNSRFNSPTTQDLVYIDPSPDYCVRNESTGSLGTQGRLCNKTSEGMDGCELMCCGRGYDQFKTVQTERCHCKFHWCCYVKCKKCTEIVDQFVCK |  | binds
